Data reported in patent publication US20080214527A1, “Hiv Integrase Inhibitors” (priority 2005, published 2008).
Some of these results come from one statement about several compounds together.

Experiments:
[1] = test system: HIV-1 (IIIB strain) in MT-4 cells; test: MT4 assay: inhibition of virus-induced CPE in MT-4 cells (MTT method); format: cell-based; settings: 4-day incubation, read-out: anti-HIV activity EC50
Method: MT-4 cells (human T-cell line established by HTLV-I-induced transformation) were cultured in RPMI1640 medium supplemented with 10% fetal calf serum and kanamycin ([…]) in 5% CO2, humidified incubator at 37° C. The stock of HIV-1 was produced as follows. Molt-4 cells persistently infected with HIV-1 (IIIB strain) were cultured for 3 days and culture supernatant was collected. After removal of cells by centrifugation, the supernatant was passed through membrane filter ([…]) and stored as cell-free culture supernatant at −80° C. The infectivity of the stock virus was measured by MTT assay.
Anti-HIV activity in vitro of test compounds was assayed by inhibition of virus-induced CPE in MT-4 cells. MT-4 cells were suspended in culture medium at 2.5×10^5 cells/ml. The cell suspension ([…]) was added to each well of a 96 well flat-bottom microtiter plate containing serial 2-fold dilution of test compounds ([…]). HIV-1 ([…]) was added to each well (4-10 TCID50/well). After 4-day incubation at 37° C., the viability of MT-4 cells was determined by the MTT method using 3-(4,5-dimethylthiazol-2-yl)-2,5-diphenyltetrazolium bromide.
The absorbance (OD) of each well was measured at two wavelengths (560 and 690 nm). All data represent the average values of three wells. The concentration (conc.) achieving 50% protection of HIV replication (EC50) were calculated.

[2] = target: HIV integrase (Human immunodeficiency virus type 1 group M subtype B, UniProt P04585); test: Integrase inhibition assay (substrate DNA/target DNA microtiter plate, OD 405 nm); format: biochemical
Method: The inhibitory activities of the present compounds against integrase were determined by the assay described below.
A substrate DNA solution (2 pmol/μl) and a target DNA solution (5 pmol/μl) were prepared by the same method as that described in Experimental Example 1 of WO 2004/024693. The DNA solutions were heated and then slowly cooled so that they were annealed with each complement. Each sequence of the substrate DNA and the target DNA is the same as described in the Experimental Example.
Streptavidin, obtained from Vector Laboratories, was dissolved in 0.1 M carbonate buffer (composition: 90 mM Na2CO3, 10 mM NaHCO3) at a concentration of 40 μg/ml. After coating each well of microtiter plates (obtained from NUNC) with 50 μl of the above solution at 4° C. over night, each well was washed twice with PBS (composition: […], 0.27 mM KCl, 0.43 mM Na2HPO4, 0.14 mM KH2PO4) and blocked with 300 μl of 1% skim milk in PBS for 30 min. Additionally, each well was washed twice with PBS and added with 50 μl of the substrate DNA solution (2 pmol/μl). The microtiter plates were kept at room temperature for 30 min. Then, each well was washed twice with PBS and once with H2O. […]
The microtiter plates were incubated at 30° C. for 10 minutes. […] The optical density (OD) at 405 nm of each well was measured and the percent inhibition was determined by the following expression. […]

Substance	EC50 [1]	IC50 [2]
7-(2-Benzyloxy-4-fluoro-benzyl)-4-hydroxy-1-methyl-2-oxo-1,2-dihydro-[1,5]naphthyridine-3-carboxylic acid hydroxymethyl-amide [Example 1]	1 to 100 nM	< 100 nM
7-(2-Benzyloxy-4-fluoro-benzyl)-4-hydroxy-1-methyl-2-oxo-1,2-dihydro-[1,5]naphthyridine-3-carboxylic acid methoxymethyl-amide [Example 2]	1 to 100 nM	< 100 nM
